Measured values published in publication PMC6814716.
Results are given in words; binding and its absence hold for the method and conditions named. In cells and extracts the contact can be indirect. Some entries that bind do so weakly or less than the wild type.

Amino acid sequences for entries named in this document (tags omitted).
UniProt O43474: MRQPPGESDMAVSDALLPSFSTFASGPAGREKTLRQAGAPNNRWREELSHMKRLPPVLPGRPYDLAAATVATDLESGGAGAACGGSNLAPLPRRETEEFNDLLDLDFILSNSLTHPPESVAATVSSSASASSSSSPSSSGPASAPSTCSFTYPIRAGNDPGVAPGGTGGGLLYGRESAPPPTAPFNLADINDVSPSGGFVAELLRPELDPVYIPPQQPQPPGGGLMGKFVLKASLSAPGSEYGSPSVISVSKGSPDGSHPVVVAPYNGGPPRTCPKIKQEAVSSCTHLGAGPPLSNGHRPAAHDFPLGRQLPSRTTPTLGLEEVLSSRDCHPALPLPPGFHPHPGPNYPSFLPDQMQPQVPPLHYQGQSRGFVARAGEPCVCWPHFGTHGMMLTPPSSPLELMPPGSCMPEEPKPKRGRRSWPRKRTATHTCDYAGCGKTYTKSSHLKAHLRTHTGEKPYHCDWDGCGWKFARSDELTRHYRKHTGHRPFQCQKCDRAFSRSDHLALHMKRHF
UniProt Q92841: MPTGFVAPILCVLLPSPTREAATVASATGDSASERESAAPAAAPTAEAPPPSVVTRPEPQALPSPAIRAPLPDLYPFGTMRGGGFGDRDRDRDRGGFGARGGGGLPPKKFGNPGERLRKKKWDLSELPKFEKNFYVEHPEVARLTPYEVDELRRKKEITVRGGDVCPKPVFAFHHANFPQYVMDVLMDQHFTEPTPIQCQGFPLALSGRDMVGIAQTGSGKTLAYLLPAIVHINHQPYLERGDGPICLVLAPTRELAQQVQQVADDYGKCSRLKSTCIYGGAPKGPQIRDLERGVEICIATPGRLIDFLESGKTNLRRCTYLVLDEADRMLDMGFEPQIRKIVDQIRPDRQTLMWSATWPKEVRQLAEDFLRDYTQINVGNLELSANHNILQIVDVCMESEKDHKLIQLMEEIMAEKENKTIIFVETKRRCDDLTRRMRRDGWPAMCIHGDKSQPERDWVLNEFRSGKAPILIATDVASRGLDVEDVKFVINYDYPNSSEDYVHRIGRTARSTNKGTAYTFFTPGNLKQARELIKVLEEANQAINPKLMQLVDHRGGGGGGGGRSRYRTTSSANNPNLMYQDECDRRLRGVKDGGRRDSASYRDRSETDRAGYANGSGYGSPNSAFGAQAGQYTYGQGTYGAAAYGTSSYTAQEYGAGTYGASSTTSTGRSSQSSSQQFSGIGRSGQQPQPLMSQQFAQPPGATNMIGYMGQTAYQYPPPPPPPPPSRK

Key:
[1] = biological target: GST-Klf4 fusion protein (UniProt O43474); experiment: pull-down; purified GST-Klf4 on GST beads incubated with lysates of DDX17-transfected HEK293T cells overnight at 4 °C; washed four times; Western blotting; only the target purified
[2] = biological target: HA-Klf4 (Krüppel-like factor 4), wild type (UniProt O43474); experiment: co-IP; HEK293T and SMMC7721 cells transfected with Flag-DDX17 or HA-Klf4 plasmid for 48 h, lysed; Flag-M2/HA beads; washed four times with cell lysis buffer; Western blotting (mutant Klf4 in HEK293T only)
[3] = biological target: Flag-DDX17 (DEAD box RNA helicase 17) (UniProt Q92841); experiment: as above

binding [1]	binding [2]	binding [3]	Substance
binds	binds	–	Flag-DDX17 (DEAD box RNA helicase 17) (from UniProt Q92841 1-729)
–	–	binds	HA-Klf4 (Krüppel-like factor 4), wild type (from UniProt O43474 1-513)
